Test [1] has as its target HA-tagged RBOHD (RESPIRATORY BURST OXIDASE PROTEIN D) (Arabidopsis thaliana) (UniProt Q9FIJ0). Briefly: affinity purification with mass spectrometry.
For test [2], the target named is phyB-miniTurbo (phyB CDS - miniTurbo-sCFP3A-3FLAG) (Arabidopsis thaliana) (UniProt P14713). Put plainly: proximity labelling.

Sequences of proteins named here, by UniProt entry; tags and fusion partners are left off.
UniProt Q9FIJ0: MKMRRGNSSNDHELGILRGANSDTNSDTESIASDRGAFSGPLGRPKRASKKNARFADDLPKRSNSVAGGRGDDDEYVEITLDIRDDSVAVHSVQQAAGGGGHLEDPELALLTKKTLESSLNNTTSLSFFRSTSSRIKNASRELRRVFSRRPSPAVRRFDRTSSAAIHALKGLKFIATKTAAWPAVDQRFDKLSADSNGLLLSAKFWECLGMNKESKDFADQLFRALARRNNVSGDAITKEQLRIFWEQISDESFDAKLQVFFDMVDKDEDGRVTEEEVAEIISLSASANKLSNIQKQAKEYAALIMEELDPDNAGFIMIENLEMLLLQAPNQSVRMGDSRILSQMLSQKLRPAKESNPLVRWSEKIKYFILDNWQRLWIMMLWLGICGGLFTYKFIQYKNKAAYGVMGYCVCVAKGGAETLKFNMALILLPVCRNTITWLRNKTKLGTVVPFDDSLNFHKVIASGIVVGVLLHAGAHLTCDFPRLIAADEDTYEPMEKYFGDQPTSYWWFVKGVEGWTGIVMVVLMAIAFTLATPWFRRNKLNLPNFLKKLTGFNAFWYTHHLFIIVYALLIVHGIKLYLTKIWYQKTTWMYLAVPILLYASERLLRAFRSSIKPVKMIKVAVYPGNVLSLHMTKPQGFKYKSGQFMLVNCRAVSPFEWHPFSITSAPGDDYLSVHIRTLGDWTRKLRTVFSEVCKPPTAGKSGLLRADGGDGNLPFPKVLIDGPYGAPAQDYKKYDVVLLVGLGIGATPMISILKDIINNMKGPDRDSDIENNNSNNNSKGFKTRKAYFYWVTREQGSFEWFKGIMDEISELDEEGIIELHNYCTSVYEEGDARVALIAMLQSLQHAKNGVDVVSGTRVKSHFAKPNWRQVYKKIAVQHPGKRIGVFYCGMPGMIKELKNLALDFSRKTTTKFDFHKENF
UniProt Q43125: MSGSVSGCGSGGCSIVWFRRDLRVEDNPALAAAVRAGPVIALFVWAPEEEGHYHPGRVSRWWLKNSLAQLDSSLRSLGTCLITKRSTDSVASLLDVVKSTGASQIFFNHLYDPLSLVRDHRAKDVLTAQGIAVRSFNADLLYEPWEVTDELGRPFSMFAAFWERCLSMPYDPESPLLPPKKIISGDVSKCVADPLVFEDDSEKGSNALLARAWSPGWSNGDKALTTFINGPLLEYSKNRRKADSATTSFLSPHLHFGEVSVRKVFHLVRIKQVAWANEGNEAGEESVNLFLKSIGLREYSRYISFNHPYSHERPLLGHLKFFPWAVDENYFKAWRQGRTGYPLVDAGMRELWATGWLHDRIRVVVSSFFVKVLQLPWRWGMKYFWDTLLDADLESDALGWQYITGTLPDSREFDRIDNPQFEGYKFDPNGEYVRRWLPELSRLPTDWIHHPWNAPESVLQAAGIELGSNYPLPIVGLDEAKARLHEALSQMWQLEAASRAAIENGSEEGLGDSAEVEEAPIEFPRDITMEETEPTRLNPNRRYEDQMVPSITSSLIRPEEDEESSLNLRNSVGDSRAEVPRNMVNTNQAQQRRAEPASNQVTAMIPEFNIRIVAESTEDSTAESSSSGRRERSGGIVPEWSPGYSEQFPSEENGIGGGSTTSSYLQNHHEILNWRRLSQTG
UniProt F4I3M3: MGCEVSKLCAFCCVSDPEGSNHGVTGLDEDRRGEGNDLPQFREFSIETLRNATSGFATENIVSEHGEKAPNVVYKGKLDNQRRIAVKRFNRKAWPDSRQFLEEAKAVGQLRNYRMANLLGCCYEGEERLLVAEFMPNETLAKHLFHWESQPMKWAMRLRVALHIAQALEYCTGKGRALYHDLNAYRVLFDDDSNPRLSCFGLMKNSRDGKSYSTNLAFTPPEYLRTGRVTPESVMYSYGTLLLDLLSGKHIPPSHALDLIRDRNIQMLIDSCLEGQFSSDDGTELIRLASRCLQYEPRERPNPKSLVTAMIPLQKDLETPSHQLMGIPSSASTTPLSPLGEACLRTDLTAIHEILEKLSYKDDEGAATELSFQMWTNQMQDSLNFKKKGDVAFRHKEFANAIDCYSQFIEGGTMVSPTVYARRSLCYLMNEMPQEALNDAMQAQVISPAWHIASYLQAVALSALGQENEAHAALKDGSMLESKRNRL
UniProt Q0WLB5: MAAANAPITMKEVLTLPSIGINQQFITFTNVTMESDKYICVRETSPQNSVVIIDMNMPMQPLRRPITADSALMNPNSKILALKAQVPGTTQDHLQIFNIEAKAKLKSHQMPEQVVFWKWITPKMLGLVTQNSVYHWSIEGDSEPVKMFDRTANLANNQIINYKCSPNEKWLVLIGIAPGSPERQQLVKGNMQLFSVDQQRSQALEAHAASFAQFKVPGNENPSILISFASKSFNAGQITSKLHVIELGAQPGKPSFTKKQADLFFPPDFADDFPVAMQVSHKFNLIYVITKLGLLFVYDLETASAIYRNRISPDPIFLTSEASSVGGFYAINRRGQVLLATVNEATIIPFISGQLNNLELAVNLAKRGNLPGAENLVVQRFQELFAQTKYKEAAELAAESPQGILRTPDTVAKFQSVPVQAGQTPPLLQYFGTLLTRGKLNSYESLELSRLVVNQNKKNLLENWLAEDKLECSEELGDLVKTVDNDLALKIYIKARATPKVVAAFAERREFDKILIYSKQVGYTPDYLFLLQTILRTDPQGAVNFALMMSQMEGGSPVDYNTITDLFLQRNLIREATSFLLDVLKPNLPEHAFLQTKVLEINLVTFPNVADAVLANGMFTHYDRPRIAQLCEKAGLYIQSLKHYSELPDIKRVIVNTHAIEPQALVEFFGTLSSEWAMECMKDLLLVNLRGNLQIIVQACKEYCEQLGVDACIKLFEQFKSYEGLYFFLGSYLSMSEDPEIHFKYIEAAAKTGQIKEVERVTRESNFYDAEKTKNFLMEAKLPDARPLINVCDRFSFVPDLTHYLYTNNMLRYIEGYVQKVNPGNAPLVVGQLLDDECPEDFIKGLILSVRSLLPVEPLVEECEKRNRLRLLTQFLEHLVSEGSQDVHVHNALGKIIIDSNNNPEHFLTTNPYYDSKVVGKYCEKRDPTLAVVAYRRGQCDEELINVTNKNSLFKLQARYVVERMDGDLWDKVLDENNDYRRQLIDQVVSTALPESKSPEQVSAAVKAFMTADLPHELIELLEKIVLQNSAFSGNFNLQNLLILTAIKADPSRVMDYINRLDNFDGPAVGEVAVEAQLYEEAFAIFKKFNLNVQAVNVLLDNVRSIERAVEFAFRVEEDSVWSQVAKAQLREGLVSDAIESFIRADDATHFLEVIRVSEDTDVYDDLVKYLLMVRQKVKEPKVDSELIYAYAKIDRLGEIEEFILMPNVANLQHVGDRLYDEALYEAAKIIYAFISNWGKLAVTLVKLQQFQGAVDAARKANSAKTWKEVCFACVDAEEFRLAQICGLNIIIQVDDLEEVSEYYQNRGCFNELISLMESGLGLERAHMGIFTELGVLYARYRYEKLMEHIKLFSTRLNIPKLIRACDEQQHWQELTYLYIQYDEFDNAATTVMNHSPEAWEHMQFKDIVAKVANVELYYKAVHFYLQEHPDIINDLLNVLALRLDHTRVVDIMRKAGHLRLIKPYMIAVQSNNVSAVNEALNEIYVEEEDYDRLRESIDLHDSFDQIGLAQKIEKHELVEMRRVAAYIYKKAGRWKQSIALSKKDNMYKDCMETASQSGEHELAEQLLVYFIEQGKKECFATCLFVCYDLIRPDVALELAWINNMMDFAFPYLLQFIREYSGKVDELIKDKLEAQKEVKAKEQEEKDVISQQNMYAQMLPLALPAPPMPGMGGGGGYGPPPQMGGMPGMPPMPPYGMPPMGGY
UniProt Q0WNJ6: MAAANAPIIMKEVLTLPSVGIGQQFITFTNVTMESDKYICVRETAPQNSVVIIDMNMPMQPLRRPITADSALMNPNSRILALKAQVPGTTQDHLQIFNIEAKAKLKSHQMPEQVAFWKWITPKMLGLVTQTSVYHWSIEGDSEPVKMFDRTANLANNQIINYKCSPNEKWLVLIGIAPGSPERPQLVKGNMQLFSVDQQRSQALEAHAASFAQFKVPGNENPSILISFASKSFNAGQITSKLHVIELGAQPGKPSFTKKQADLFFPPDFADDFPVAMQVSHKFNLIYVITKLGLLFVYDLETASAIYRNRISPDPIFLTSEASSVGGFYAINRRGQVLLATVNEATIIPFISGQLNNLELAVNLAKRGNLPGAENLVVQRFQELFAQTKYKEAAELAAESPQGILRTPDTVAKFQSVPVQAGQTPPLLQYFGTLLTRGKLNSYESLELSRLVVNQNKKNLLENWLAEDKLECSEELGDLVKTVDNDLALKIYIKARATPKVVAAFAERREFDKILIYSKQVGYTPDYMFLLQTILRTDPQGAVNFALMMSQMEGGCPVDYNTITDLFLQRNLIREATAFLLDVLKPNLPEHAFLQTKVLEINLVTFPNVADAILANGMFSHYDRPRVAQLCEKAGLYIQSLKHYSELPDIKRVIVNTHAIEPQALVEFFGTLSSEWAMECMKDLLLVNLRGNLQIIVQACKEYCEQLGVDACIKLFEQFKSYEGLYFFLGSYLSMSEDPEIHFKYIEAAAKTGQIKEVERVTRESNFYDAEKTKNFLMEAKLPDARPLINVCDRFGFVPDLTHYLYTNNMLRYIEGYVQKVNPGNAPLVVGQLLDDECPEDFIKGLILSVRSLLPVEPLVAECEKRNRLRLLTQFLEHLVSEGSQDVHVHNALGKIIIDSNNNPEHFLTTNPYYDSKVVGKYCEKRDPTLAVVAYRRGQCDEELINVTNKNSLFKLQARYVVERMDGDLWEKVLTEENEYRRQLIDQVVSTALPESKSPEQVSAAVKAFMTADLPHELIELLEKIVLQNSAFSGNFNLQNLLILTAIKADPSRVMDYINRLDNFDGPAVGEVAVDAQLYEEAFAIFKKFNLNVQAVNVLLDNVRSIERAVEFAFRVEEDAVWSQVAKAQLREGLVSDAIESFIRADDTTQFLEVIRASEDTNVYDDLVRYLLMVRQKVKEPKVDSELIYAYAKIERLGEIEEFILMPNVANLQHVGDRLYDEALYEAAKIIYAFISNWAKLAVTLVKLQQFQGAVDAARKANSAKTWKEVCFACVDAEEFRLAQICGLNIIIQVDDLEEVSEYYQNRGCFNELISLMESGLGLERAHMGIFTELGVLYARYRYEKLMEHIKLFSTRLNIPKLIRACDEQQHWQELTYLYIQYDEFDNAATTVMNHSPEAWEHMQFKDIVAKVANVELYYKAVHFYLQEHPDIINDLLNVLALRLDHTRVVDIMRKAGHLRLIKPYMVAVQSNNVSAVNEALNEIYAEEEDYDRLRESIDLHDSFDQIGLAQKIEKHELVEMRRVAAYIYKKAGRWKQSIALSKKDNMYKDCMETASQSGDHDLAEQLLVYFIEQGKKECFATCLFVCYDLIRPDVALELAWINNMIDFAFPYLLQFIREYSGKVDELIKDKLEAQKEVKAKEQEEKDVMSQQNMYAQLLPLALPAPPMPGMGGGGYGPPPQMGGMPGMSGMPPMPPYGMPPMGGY

Results are given in words; binding and its absence hold for the method and conditions named. Binding seen in cells or lysates may run through a third protein. A yes stands for co-enrichment or nearness to the bait. Other partners may have been found.

On to “BRASSINOSTEROID … 1 (from UniProt O22476 24-1196) (receptor)”, for which the binding result in test [1] is reported as “binds”. In the case of “CRYPTOCHROME 1 (from UniProt Q43125 1-681)”, in test [2], the binding result is given as “binds”. As to “LEUCINE-RICH REPEAT (LRR) like receptor At5g07910 (from UniProt F4K9I0)”, the binding result in test [1] is recorded as “binds”. Consider “RBOHD (RESPIRATORY BURST OXIDASE PROTEIN D) (from UniProt Q9FIJ0 1-921)”, for which, in test [2], the binding result is “binds”.

As for “SERINE/THREONINE-PROTEIN KINASE BSK7 (At1g63500) (from UniProt F4I3M3 1-487) (enzyme)”, in test [1], the binding result was “binds”. On to “protein involved in RBOHD recycling via clathrin mediated endocytosis (At3g08530) (from UniProt Q0WLB5 1-1703)”, for which the binding entry in test [1] was “binds”.

As for “protein involved in RBOHD recycling via clathrin mediated endocytosis (At3g11130) (from UniProt Q0WNJ6 1-1705)”, the binding entry in test [1] was “binds”.
